Data published in publication PMC10167121, “Completing the TRB family: newly characterized members show ancient evolutionary origins and distinct localization, yet similar interactions”.
No constants are given. Whether binding was seen depends on the method and setting. For some of these results: Binding seen in cells or lysates may run through a third protein. Some results given as binding are weak or reduced against the parent protein; the word gives no strength. Where a sequence is shown, tags or fusion partners need not be part of it.

T1: TRB2 fused with nYFP or cYFP (BiFC construct) (A. thaliana) (UniProt Q9FJW5)
T1 sequence: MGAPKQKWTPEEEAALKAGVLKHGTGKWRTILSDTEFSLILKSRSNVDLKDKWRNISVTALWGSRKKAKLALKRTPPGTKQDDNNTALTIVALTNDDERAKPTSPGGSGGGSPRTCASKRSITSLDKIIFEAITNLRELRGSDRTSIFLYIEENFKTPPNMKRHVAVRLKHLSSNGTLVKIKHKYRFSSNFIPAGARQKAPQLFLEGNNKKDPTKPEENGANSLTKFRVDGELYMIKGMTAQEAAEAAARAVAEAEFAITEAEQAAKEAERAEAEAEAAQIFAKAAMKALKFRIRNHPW

T2: TRB1 fused with nYFP or cYFP (BiFC construct) (A. thaliana) (UniProt Q8VWK4)
T2 sequence: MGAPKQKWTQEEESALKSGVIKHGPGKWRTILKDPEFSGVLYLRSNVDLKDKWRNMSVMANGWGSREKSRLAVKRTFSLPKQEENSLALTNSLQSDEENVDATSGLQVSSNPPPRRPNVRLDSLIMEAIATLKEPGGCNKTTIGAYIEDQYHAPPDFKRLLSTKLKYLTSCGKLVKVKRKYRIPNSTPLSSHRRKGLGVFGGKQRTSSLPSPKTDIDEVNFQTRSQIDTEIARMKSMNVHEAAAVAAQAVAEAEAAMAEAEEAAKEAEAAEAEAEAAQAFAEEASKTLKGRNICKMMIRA


Key:
[1] = target: T1, TRB2 fused with nYFP or cYFP (BiFC construct) (A. thaliana); assay: split reporter; BiFC with nYFP/cYFP fusions from pBiFCt-2in1 vectors (internal marker mRFP1), transient Agrobacterium-mediated expression in N. benthamiana leaf epidermal cells, confocal microscopy
[2] = target: T2, TRB1 fused with nYFP or cYFP (BiFC construct) (A. thaliana); assay: as above
[3] = target: TRB3 fused with nYFP or cYFP (BiFC construct) (A. thaliana) (UniProt Q9M2X3); assay: as above
[4] = target: Telomere repeat binding protein 1 (TRB1), yeast two-hybrid fusion (A. thaliana) (UniProt Q8VWK4); assay: two-hybrid; Matchmaker GAL4-based system, S. cerevisiae PJ69-4a; growth on SD -Leu -Trp -His (with or without 1 mM or 3 mM 3-AT) or SD -Leu -Trp -Ade at 30 °C; empty vector as negative control

binding [1]	binding [2]	binding [3]	binding [4]	Binder
binds	binds	–	–	TRB2 fused with nYFP or cYFP (BiFC construct) (protein, UniProt Q9FJW5 1-299) MGAPKQKWTPEEEAALKAGVLKHGTGKWRTILSDTEFSLILKSRSNVDLKDKWRNISVTALWGSRKKAKLALKRTPPGTKQDDNNTALTIVALTNDDERAKPTSPGGSGGGSPRTCASKRSITSLDKIIFEAITNLRELRGSDRTSIFLYIEENFKTPPNMKRHVAVRLKHLSSNGTLVKIKHKYRFSSNFIPAGARQKAPQLFLEGNNKKDPTKPEENGANSLTKFRVDGELYMIKGMTAQEAAEAAARAVAEAEFAITEAEQAAKEAERAEAEAEAAQIFAKAAMKALKFRIRNHPW
binds	binds	binds	–	TRB3 fused with nYFP or cYFP (BiFC construct) (protein, UniProt Q9M2X3 1-295) MGAPKLKWTPEEETALKAGVLKHGTGKWRTILSDPVYSTILKSRSNVDLKDKWRNISVTALWGSRKKAKLALKRTPLSGSRQDDNATAITIVSLANGDVGGQQIDAPSPPAGSCEPPRPSTSVDKIILEAITSLKRPFGPDGKSILMYIEENFKMQPDMKRLVTSRLKYLTNVGTLVKKKHKYRISQNYMAEGEGQRSPQLLLEGNKENTPKPEENGVKNLTKSQVGGEVMIMGMTEKEAAAAAARAVAEAEFAMAEAEEAAREADKAEAEAEAAHIFAKAAMKAVKYRMHSQTR
–	–	–	binds	Telomere repeat binding protein 1 (TRB1), yeast two-hybrid fusion (protein, UniProt Q8VWK4 1-300) MGAPKQKWTQEEESALKSGVIKHGPGKWRTILKDPEFSGVLYLRSNVDLKDKWRNMSVMANGWGSREKSRLAVKRTFSLPKQEENSLALTNSLQSDEENVDATSGLQVSSNPPPRRPNVRLDSLIMEAIATLKEPGGCNKTTIGAYIEDQYHAPPDFKRLLSTKLKYLTSCGKLVKVKRKYRIPNSTPLSSHRRKGLGVFGGKQRTSSLPSPKTDIDEVNFQTRSQIDTEIARMKSMNVHEAAAVAAQAVAEAEAAMAEAEEAAKEAEAAEAEAEAAQAFAEEASKTLKGRNICKMMIRA
–	binds	–	–	TRB1 fused with nYFP or cYFP (BiFC construct) (protein, UniProt Q8VWK4 1-300) MGAPKQKWTQEEESALKSGVIKHGPGKWRTILKDPEFSGVLYLRSNVDLKDKWRNMSVMANGWGSREKSRLAVKRTFSLPKQEENSLALTNSLQSDEENVDATSGLQVSSNPPPRRPNVRLDSLIMEAIATLKEPGGCNKTTIGAYIEDQYHAPPDFKRLLSTKLKYLTSCGKLVKVKRKYRIPNSTPLSSHRRKGLGVFGGKQRTSSLPSPKTDIDEVNFQTRSQIDTEIARMKSMNVHEAAAVAAQAVAEAEAAMAEAEEAAKEAEAAEAEAEAAQAFAEEASKTLKGRNICKMMIRA
